At least one read-out could not be matched to a standard name with certainty.
How the values were obtained:
SNB-19 = assay: panel of 60 human tumor cell lines, growth inhibition (CNS Cancer)
MDA-MB-231/ATCC = assay: panel of 60 human tumor cell lines, growth inhibition (Breast Cancer)
SR = assay: panel of 60 human tumor cell lines, growth inhibition (Leukemia)
SF-539 = assay: panel of 60 human tumor cell lines, growth inhibition (CNS Cancer)
CCRF-CEM = assay: panel of 60 human tumor cell lines, growth inhibition (Leukemia)
PC-3 = assay: panel of 60 human tumor cell lines, growth inhibition (Prostate Cancer)
UO-31 = assay: panel of 60 human tumor cell lines, growth inhibition (Renal Cancer)
SK-MEL-5 = assay: panel of 60 human tumor cell lines, growth inhibition (Melanoma); settings: 8K-MEL-5
SF-268 = assay: panel of 60 human tumor cell lines, growth inhibition (CNS Cancer)

## C=C1C(=O)O[C@H]2[C@H]1CC/C(COC(=O)Nc1n[nH]c(SC)n1)=C\CC[C@@]1(C)O[C@@H]21 [JVM 64, ((1aR,7aS,10aS,10bS,E)-1a-methyl-8-methylene-9-oxo-1a,2,3,6,7,7a,8,9,10a,10b-decahydrooxireno[2′,3′:9,10]cyclodeca[1,2-b]furan-5-yl)methyl-(5-(methylthio)-1H-1,2,4-triazol-3-yl)carbamate]
SNB-19; Log10 Concentration −4.0
  Percent Growth: −50%
SNB-19; Log10 Concentration −5.0
  Percent Growth: 75%
SNB-19; Log10 Concentration −6.0
  Percent Growth: 92%
SNB-19; Log10 Concentration −7.0
  Percent Growth: 91%
SNB-19; Log10 Concentration −8.0
  Percent Growth: 95%
MDA-MB-231/ATCC; Log10 Concentration −4.0
  Percent Growth: −84%
MDA-MB-231/ATCC; Log10 Concentration −5.0
  Percent Growth: −4%
MDA-MB-231/ATCC; Log10 Concentration −6.0
  Percent Growth: 97%
MDA-MB-231/ATCC; Log10 Concentration −7.0
  Percent Growth: 101%
MDA-MB-231/ATCC; Log10 Concentration −8.0
  Percent Growth: 103%
SR; Log10 Concentration −4.0
  Percent Growth: −50%
SR; Log10 Concentration −5.0
  Percent Growth: −15%
SR; Log10 Concentration −6.0
  Percent Growth: 139%
SR; Log10 Concentration −7.0
  Percent Growth: 103%
SR; Log10 Concentration −8.0
  Percent Growth: 98%
SF-539; Log10 Concentration −4.0
  Percent Growth: −96%
SF-539; Log10 Concentration −5.0
  Percent Growth: −53%
SF-539; Log10 Concentration −6.0
  Percent Growth: 84%
SF-539; Log10 Concentration −7.0
  Percent Growth: 92%
SF-539; Log10 Concentration −8.0
  Percent Growth: 96%
CCRF-CEM; Log10 Concentration −4.0
  Percent Growth: −56%
CCRF-CEM; Log10 Concentration −5.0
  Percent Growth: −31%
CCRF-CEM; Log10 Concentration −6.0
  Percent Growth: 39%
CCRF-CEM; Log10 Concentration −7.0
  Percent Growth: 94%
CCRF-CEM; Log10 Concentration −8.0
  Percent Growth: 101%
PC-3; Log10 Concentration −4.0
  Percent Growth: −62%
PC-3; Log10 Concentration −5.0
  Percent Growth: 47%
PC-3; Log10 Concentration −6.0
  Percent Growth: 95%
PC-3; Log10 Concentration −7.0
  Percent Growth: 97%
PC-3; Log10 Concentration −8.0
  Percent Growth: 98%
UO-31; Log10 Concentration −4.0
  Percent Growth: −82%
UO-31; Log10 Concentration −5.0
  Percent Growth: −14%
UO-31; Log10 Concentration −6.0
  Percent Growth: 77%
UO-31; Log10 Concentration −7.0
  Percent Growth: 88%
UO-31; Log10 Concentration −8.0
  Percent Growth: 90%
SK-MEL-5; Log10 Concentration −4.0
  Percent Growth: −94%
SK-MEL-5; Log10 Concentration −5.0
  Percent Growth: 10%
SK-MEL-5; Log10 Concentration −6.0
  Percent Growth: 90%
SK-MEL-5; Log10 Concentration −7.0
  Percent Growth: 93%
SK-MEL-5; Log10 Concentration −8.0
  Percent Growth: 94%
SF-268; Log10 Concentration −4.0
  Percent Growth: −75%
SF-268; Log10 Concentration −5.0
  Percent Growth: 15%
SF-268; Log10 Concentration −6.0
  Percent Growth: 97%
SF-268; Log10 Concentration −7.0
  Percent Growth: 101%
SF-268; Log10 Concentration −8.0
  Percent Growth: 102%

## C=C1C(=O)O[C@H]2[C@H]1CC/C(COC(=S)n1ccnc1)=C\CC[C@@]1(C)O[C@@H]21 [JVM 66]
SNB-19; Log10 Concentration −4.0
  Percent Growth: 38%
SNB-19; Log10 Concentration −5.0
  Percent Growth: 83%
SNB-19; Log10 Concentration −6.0
  Percent Growth: 92%
SNB-19; Log10 Concentration −7.0
  Percent Growth: 94%
SNB-19; Log10 Concentration −8.0
  Percent Growth: 93%
MDA-MB-231/ATCC; Log10 Concentration −4.0
  Percent Growth: −68%
MDA-MB-231/ATCC; Log10 Concentration −5.0
  Percent Growth: 79%
MDA-MB-231/ATCC; Log10 Concentration −6.0
  Percent Growth: 97%
MDA-MB-231/ATCC; Log10 Concentration −7.0
  Percent Growth: 100%
MDA-MB-231/ATCC; Log10 Concentration −8.0
  Percent Growth: 106%
SR; Log10 Concentration −4.0
  Percent Growth: −26%
SR; Log10 Concentration −5.0
  Percent Growth: 37%
SR; Log10 Concentration −6.0
  Percent Growth: 98%
SR; Log10 Concentration −7.0
  Percent Growth: 96%
SR; Log10 Concentration −8.0
  Percent Growth: 97%
SF-539; Log10 Concentration −4.0
  Percent Growth: −76%
SF-539; Log10 Concentration −5.0
  Percent Growth: 86%
SF-539; Log10 Concentration −6.0
  Percent Growth: 96%
SF-539; Log10 Concentration −7.0
  Percent Growth: 95%
SF-539; Log10 Concentration −8.0
  Percent Growth: 96%
CCRF-CEM; Log10 Concentration −4.0
  Percent Growth: −41%
CCRF-CEM; Log10 Concentration −5.0
  Percent Growth: 12%
CCRF-CEM; Log10 Concentration −6.0
  Percent Growth: 93%
CCRF-CEM; Log10 Concentration −7.0
  Percent Growth: 99%
CCRF-CEM; Log10 Concentration −8.0
  Percent Growth: 100%
PC-3; Log10 Concentration −4.0
  Percent Growth: −18%
PC-3; Log10 Concentration −5.0
  Percent Growth: 85%
PC-3; Log10 Concentration −6.0
  Percent Growth: 96%
PC-3; Log10 Concentration −7.0
  Percent Growth: 95%
PC-3; Log10 Concentration −8.0
  Percent Growth: 100%
UO-31; Log10 Concentration −4.0
  Percent Growth: −80%
UO-31; Log10 Concentration −5.0
  Percent Growth: 47%
UO-31; Log10 Concentration −6.0
  Percent Growth: 89%
UO-31; Log10 Concentration −7.0
  Percent Growth: 86%
UO-31; Log10 Concentration −8.0
  Percent Growth: 83%
SK-MEL-5; Log10 Concentration −4.0
  Percent Growth: −92%
SK-MEL-5; Log10 Concentration −5.0
  Percent Growth: 73%
SK-MEL-5; Log10 Concentration −6.0
  Percent Growth: 92%
SK-MEL-5; Log10 Concentration −7.0
  Percent Growth: 87%
SK-MEL-5; Log10 Concentration −8.0
  Percent Growth: 97%
SF-268; Log10 Concentration −4.0
  Percent Growth: −17%
SF-268; Log10 Concentration −5.0
  Percent Growth: 85%
SF-268; Log10 Concentration −6.0
  Percent Growth: 98%
SF-268; Log10 Concentration −7.0
  Percent Growth: 99%
SF-268; Log10 Concentration −8.0
  Percent Growth: 96%
